Results from paper PMC12040169 (PLOS Biology, 2025).
This is one part of the list.

The compounds below were run on T1, CTL2-GFP (C. trachomatis L2/434/Bu, GFP-expressing). Details: bulk GFP, single well; 28.5 h, 10 µM; inhibitor.
T1 construct: L2/434/Bu, GFP-expressing
Set-up: species or system HeLa; Intracellular C. trachomatis growth in HeLa cells, bulk GFP fluorescence relative to DMSO

SMILES | % of control remaining
Cn1cc(CNCC2CCN(c3ccccc3)C2)c(-c2cccnc2)n1 (centres unmarked) [CBK304155] | 125.825%
CC(=O)N1CCC2(CCCC[C@H]3CN(C(=O)C(C)C)CC[C@@H]3NC(=O)CNC2=O)CC1 [CBK292121] | 149.72%
Cc1ccc(OC(C)C(=O)Nc2ccc(S(=O)(=O)Nc3cc(C)on3)cc2)cc1 (centres unmarked) [CBK268757] | 72.2463%
COCCNc1nc2c(c(N3CCCCCC3)n1)CCNCC2 [CBK306724] | 8.642%
COc1cc(NC(=O)c2ccc3c(c2)C(=O)N(c2ccccc2OC)C3=O)c(C(=O)O)cc1OC [CBK262787] | 105.267%
O=C(Cn1nc(N2CCSCC2)ccc1=O)Nc1ccccc1 [CBK307623] | 97.8679%
COC(=O)c1c(NC(=S)N2CCN(Cc3c(C)nn(C)c3C)CC2)sc2c1CCC(C)C2 (centres unmarked) [CBK267103] | 133.949%
Cc1nn(C)c(C)c1OCC(=O)Nc1nc2c(cc1C#N)CCC2 [CBK306371] | 136.413%
NC(=O)CN1CC2(CCN(CCCCC3NC(=O)NC3=O)CC2)c2ccccc21 (centres unmarked) [CBK126799] | 136.872%
O=C(O)c1cccc(NS(=O)(=O)c2cccnc2)c1 [CBK155700] | 94.5877%
CC(=O)Nc1ccc(CNC(=O)c2ccc[nH]2)cc1 [CBK304538] | 131.489%
COc1cc(CN2CCN(C(=O)c3cccc(F)c3)CC2)cc(OC)c1O [CBK074633] | 84.9002%
CCN1CCOC(CNCc2ccc(OCC(N)=O)cc2)C1 (centres unmarked) [CBK305108] | 91.7765%
Cc1onc(-c2ccccc2Cl)c1C(=O)Nc1ccc(S(=O)(=O)N2CCC(C)CC2)cc1 [CBK265463] | 77.1919%
Cc1csc(NC(=O)CSc2ccc3nnc(-c4ccccc4)n3n2)n1 [CBK287517] | 119.967%
CC(C)C(=O)Nc1cccc(NC(=O)COc2ccc(Br)cc2)c1 [CBK265211] | 115.081%
O=S(=O)(c1ccc(F)cc1)N1CCCC1c1cccc(Cc2cccc(F)c2)n1 (centres unmarked) [CBK286209] | 114.618%
C/C(=N\NC(=O)c1cccc(Cl)c1)c1ccccc1O [CBK261665] | 59.7872%
COc1ccc2c(c1)CCc1sc(NS(=O)(=O)c3cccc(Cl)c3C)nc1-2 [CBK200033] | 82.4095%
Nc1nc(-c2ccccc2)c(C(=O)Nc2ccccc2)s1 [CBK058068] | 42.2566%
Cc1cc(C)c2c(c1)-c1c(ssc1=S)C(C)(C)N2C(=O)CSc1nncn1C [CBK263035] | 86.1778%
COc1ccc(-n2nc(C)c3onc(C)c3c2=O)cc1 [CBK000853] | 104.308%
S=C(NCc1ccco1)Nc1nn(Cc2ccc(Cl)cc2Cl)cc1Cl [CBK267021] | 157.34%
CC(C)c1cc(C(=O)N(Cc2ccccn2)CC2CCCO2)on1 (centres unmarked) [CBK306579] | 143.243%
COc1ccc(-c2nc(CCN)n3ccccc23)cc1 [CBK035583] | 113.332%

Grouped by structure, the entries above containing an aryl methoxy group.
SMILES | % of control remaining
COc1cc(NC(=O)c2ccc3c(c2)C(=O)N(c2ccccc2OC)C3=O)c(C(=O)O)cc1OC [CBK262787] | 105.267%
COc1cc(CN2CCN(C(=O)c3cccc(F)c3)CC2)cc(OC)c1O [CBK074633] | 84.9002%
COc1ccc2c(c1)CCc1sc(NS(=O)(=O)c3cccc(Cl)c3C)nc1-2 [CBK200033] | 82.4095%
COc1ccc(-n2nc(C)c3onc(C)c3c2=O)cc1 [CBK000853] | 104.308%
COc1ccc(-c2nc(CCN)n3ccccc23)cc1 [CBK035583] | 113.332%

Random excerpt: 2 records from the list.
SMILES | % of control remaining
CC(C)C(=O)Nc1cccc(NC(=O)COc2ccc(Br)cc2)c1 [CBK265211] | 115.081%
CC(=O)Nc1ccc(CNC(=O)c2ccc[nH]2)cc1 [CBK304538] | 131.489%

Next records

SMILES | % of control remaining
CCNC(=O)N[C@H]1[C@H](O)[C@@H](N(CC)CC)[C@@H]2OC[C@H]1O2 [CBK288816] | 121.045%
Fc1ccc2[nH]c3c(c2c1)CCN1C(c2ccncc2)N2CCC31CC2 (centres unmarked) [CBK284437] | 136.09%
Nc1cc2ccccc2c(-c2ccc3c(c2)OCCCO3)n1 [CBK085722] | 110.719%
CCOC(=O)N1CCC(NC(=O)N2CCCC(CO)C2)CC1 (centres unmarked) [CBK156345] | 118.771%
COc1ccc2ncc3c(c2c1)NCCNC3=O [CBK291168] | 161.201%
COc1ccccc1-c1cnccc1-n1ccnc1 [CBK177153] | 134.095%
CC(=O)N1CC[C@H](c2nc3cccc(C(N)=O)c3[nH]2)C1 [CBK289415] | 156.952%
Nc1ncncc1-c1noc([C@@H]2CCCN2c2ncccn2)n1 [CBK288901] | 108.799%
O=[N+]([O-])c1ccc(/C=C/c2nn3c(Cn4cnc5ccccc54)nnc3s2)cc1 [CBK268273] | 119.113%
COCC1CCCN(Cc2cn(C)nc2C(C)(C)C)C1 (centres unmarked) [CBK304818] | 97.7336%
O=[N+]([O-])c1ccc(CN2CCN(Cc3c[nH]c4ccccc34)CC2)cc1 [CBK218620] | 100%
O=C(NCc1cccnc1)c1ncoc1-c1cccs1 [CBK283974] | 165.132%
CC1CCCCN1S(=O)(=O)c1ccc(-n2ncc(Cl)c(Cl)c2=O)cc1 (centres unmarked) [CBK305035] | 66.003%
CO[C@@]12CC[C@H](OCC(=O)O)C[C@@H]1N(Cc1c(C)cnn1C)CC2 [CBK306638] | 120.618%
COc1ccc(CNC(=O)c2cc(S(=O)(=O)N3CCCCC3)cs2)cc1 [CBK307590] | 115.543%
CCCN(C(=O)CCn1c(=O)oc2cc(Cl)ccc21)C1CCNC1 (centres unmarked) [CBK304311C] | 98.0651%
CNC(=O)CSc1nccc(C(F)(F)F)n1 [CBK107759] | 93.8992%
COc1ccc(C(C)C)cc1-c1cnc(N)c(N2CCOCC2)n1 [CBK063384] | 146.802%
CC(=O)N1c2ccccc2C(C)(c2ccc(Br)cc2)CC1(C)C (centres unmarked) [CBK026461] | 18.3713%
O=c1c2cn[nH]c2nc(SCc2ccc3c(c2)OCCO3)n1-c1ccccc1 [CBK266593] | 126.555%
OC1(Cn2cnc3ccccc32)CCN(Cc2ccc(F)cc2)CC1 [CBK284661] | 133.651%
CN(C)C(=S)Oc1ccc2[nH]c3c(c2c1)CCNC31CCN(CCOc2ccccc2)C1 (centres unmarked) [CBK105748] | 116.757%
COc1ccccc1NC(=O)N1C[C@@H]2C[C@H](C1)c1c(-c3cccs3)ccc(=O)n1C2 [CBK289191] | 79.6173%
O=c1[nH]nc2c(Sc3cccc(F)c3)nccn12 [CBK288508] | 87.987%
CCn1cnnc1SCC(=O)Nc1ccc(CN2CCOCC2)cc1 [CBK305072] | 127.894%
